Laboratory results reported in paper doi:10.1101/557116 (bioRxiv, 2019).
Where a chain is given by its changes, count along the chain named. Names and notes keep the numbering of the source. No constants are given. Whether binding was seen depends on the method and setting. For some of these results: In cells and extracts the contact can be indirect. Some entries that bind do so weakly or less than the wild type. For some of these results: Sequences can lack the tags named with a protein. One block for each molecule: values may come before it.

By UniProt entry, the sequences of proteins in these tests, tags left out. Where a name states a change or a piece, a line headed by the entry shows the natural chain unless it says otherwise. Residues count along the entry.
UniProt P59901, 24-223: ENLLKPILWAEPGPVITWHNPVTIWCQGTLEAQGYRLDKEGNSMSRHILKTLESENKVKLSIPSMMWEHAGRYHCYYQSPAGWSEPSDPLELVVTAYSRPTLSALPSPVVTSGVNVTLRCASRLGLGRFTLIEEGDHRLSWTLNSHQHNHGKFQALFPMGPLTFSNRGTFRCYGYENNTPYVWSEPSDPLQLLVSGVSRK

Experiments:
HA-BST2 WT (human) = HA-BST2 WT (human) (UniProt Q10589); assay: co-IP
[1] = target: T1, HA-BST2 WT (human), Q10589; assay: co-IP; conditions: remark: other sources report otherwise
T1 chain: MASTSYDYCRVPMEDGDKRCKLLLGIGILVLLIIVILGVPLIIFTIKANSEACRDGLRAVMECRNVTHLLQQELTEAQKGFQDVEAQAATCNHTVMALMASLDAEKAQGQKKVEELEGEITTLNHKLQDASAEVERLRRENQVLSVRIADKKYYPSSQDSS

bacILT7 24-223 = bacILT7 24-223 (human, UniProt P59901 24-223, fluorescent label (Protein Labeling Kit RED-NHS)); assay: MST

binding (HA-BST2 WT (human)): binds
Molecule: Myc-BST2 R136A (from UniProt Q10589 1-161)

binding [1]: binds
B1: HA-BST2 WT, Q10589 1-161 (protein)
chain: T1 chain

binding (bacILT7 24-223): no binding
B2: BST2 ectodomain (residues 47 to 159) D129A (domain or fragment, human, UniProt Q10589 47-159, looked up)
chain: KANSEACRDGLRAVMECRNVTHLLQQELTEAQKGFQDVEAQAATCNHTVMALMASLDAEKAQGQKKVEELEGEITTLNHKLQAASAEVERLRRENQVLSVRIADKKYYPSSQD

binding (bacILT7 24-223): no binding
B3: BST2 ectodomain (residues 47 to 159) R136A (domain or fragment, human, UniProt Q10589 47-159, looked up)
chain: B2 chain with A83D, R90A
